Patent publication US12252423B2, “Biodegradation of fluorochemicals” (The Trustees of Princeton University, priority 2018, dated 2025)

Columns and labels:
[1] = system: pure strain A8 (Terrimonas sp.); experiment: PFAS biodegradation incubation, pure strain A8; conditions: 100 ppb
[2] = PFAS biodegradation incubation, autoclave control; conditions: 100 ppb, autoclaved
[3] = system: A6 enrichment culture; experiment: Feammox incubation of various PFAS with A6 enrichment culture, day 60; parameters: species or system Acidimicrobiaceae sp. A6; conditions: initial conc. 100 mg/l; for % defluorination of initial compound degraded: ratio of F− produced to F− expected for complete defluorination
[4] = system: pure strain A6 (Acidimicrobiaceae sp.); experiment: PFAS biodegradation incubation, pure strain A6; conditions: 100 ppb
[5] = system: A6 enrichment culture; experiment: PFOA and PFOS enrichment culture incubations vs. time with intermediates, end products and fluorine balance; parameters: species or system Acidimicrobiaceae sp. A6; conditions: fluorine balance, PFOS experiment

Row | Compound | Acetate produced [3] [mg/L] | Decrease in concentration [3] [mg/L] | F^− produced [3] [mg/L] | % defluorination of initial compound degraded [3] [%] | other results
1 | O=S(=O)(O)CCC(F)(F)C(F)(F)C(F)(F)C(F)(F)C(F)(F)C(F)(F)F [6:2 FTS, 6:2 Fluorotelomer sulfonate] | 11.0 | 18.0 | 11.4 | 109 | One week removal (%) [1]: 2.77%; One week removal (%) [2]: −0.40%; One week removal (%) [4]: 3.05%
2 | O=C(O)C(F)(F)C(F)(F)C(F)(F)F [PFBA, Perfluorobutanoic acid] | 31.1 | 41.3 | 24.9 | 97 | –
3 | OCCC(F)(F)C(F)(F)C(F)(F)C(F)(F)C(F)(F)C(F)(F)C(F)(F)C(F)(F)F [8:2 FTOH, 8:2 Fluorotelomer Alcohol] | 15.0 | 25.1 | 17.5 | 100 | One week removal (%) [1]: 1.42%; One week removal (%) [2]: 0.05%; One week removal (%) [4]: 2.08%
4 | O=C(O)C(F)(F)C(F)(F)C(F)(F)F [HFBA, Heptafluorobutyric acid] | – | – | – | – | Two week removal (%) [1]: 10.44%; Two week removal (%) [2]: 0.31%; Two week removal (%) [4]: 7.20%
5 | O=S(=O)(O)C(F)(F)C(F)(F)C(F)(F)C(F)(F)C(F)(F)C(F)(F)C(F)(F)C(F)(F)F [PFOS, Perfluorooctane sulfonate] | 10.0 | 39.2 | 18.0 | 71 | F in PFOS ([5]; 0 days): 3.54 mM; F in PFPrA ([5]; 0 days): 0 mM; F in PFOS ([5]; 10 days): 3.06 mM; F in PFPrA ([5]; 10 days): 0.009 mM; F in PFOS ([5]; 45 days): 2.58 mM; F in PFPrA ([5]; 45 days): 0.005 mM; F in PFOS ([5]; 60 days): 2.45 mM; F in PFPrA ([5]; 60 days): 0.07 mM
6 | O=S(=O)(OCC(F)(F)F)C(F)(F)C(F)(F)C(F)(F)C(F)(F)F [PFBS, 2,2,2-Trifluoroethyl Nonafluorobutanesulfonate] | 16.2 | 35.2 | 15.9 | 79 | Two week removal (%) [1]: 5.38%; Two week removal (%) [2]: −0.81%; Two week removal (%) [4]: 5.92%
7 | O=P(O)(OCCC(F)(F)C(F)(F)C(F)(F)C(F)(F)C(F)(F)C(F)(F)C(F)(F)C(F)(F)F)OCCC(F)(F)C(F)(F)C(F)(F)C(F)(F)C(F)(F)C(F)(F)C(F)(F)C(F)(F)F [8:2 diPAP, 8:2 Fluorotelomer phosphate diester] | 2.1 | 16.2 | 1.8 | 17 | –
8 | OCCC(F)(F)C(F)(F)C(F)(F)C(F)(F)C(F)(F)C(F)(F)F [6:2 FTOH, 6:2 Fluorotelomer alcohol] | 6.6 | 19.4 | 7.1 | 55 | –
9 | N.O=C(O)C(F)(F)C(F)OC(F)(F)C(F)(F)C(F)(F)OC(F)(F)F (stereo not drawn) [ADONA, Ammonium 4,8-dioxa-3H-perfluorononanoate] | 3.0 | 12.3 | 1.0 | 15 | –
10 | NS(=O)(=O)C(F)(F)C(F)(F)C(F)(F)C(F)(F)C(F)(F)C(F)(F)C(F)(F)C(F)(F)F [PFOSA, Perfluorooctane sulfonamide] | 4.7 | 18.5 | 6.1 | 51 | –
11 | O=C(O)C(F)(F)C(F)(F)C(F)(F)C(F)(F)C(F)(F)C(F)(F)C(F)(F)F [PFOA, Perfluorooctanoic acid] | 23.9 | 44.4 | 29.5 | 97 | Two week removal (%) [1]: 5.38%; Two week removal (%) [2]: 0.18%; Two week removal (%) [4]: 7.92%
